In patent US20230303676A1:
No constants are given. Whether binding was seen depends on the method and setting. A result given as binding can be weak or reduced; the word gives no strength.

Molecular target: recombinant soluble netrin-1 (R&D systems)
Assay: immunoprecipitation with NP137 on Protein A magnetic beads, then Western blot; recombinant netrin-1 added to netrin-1 KO HepaRG or netrin-1 null Hepa1-6 cells

binding: binds
B1: NP137 humanized anti-netrin-1 antibody (antibody, V domains shown)
VH: QVQLQQSGPGLVKPSQTLSLTCAISGYTFTSYNMHWVRQATGQGLEWMGAIYPGNGDTSYNQKFKGRLTISKDTSKNQVVLTMTNMDPVDTATYYCARGGTGFAYWGQG
VL: DIQMTQSPSSLSASVGDRVTITCKASQSVSNDVAWYQQKPGQAPRLLIYYASNRYTGIPPRFSGSGYGTDFTLTINNIESEDAAYYFCQQDYSSPWTFGQG
